We go through one molecule from article PMC6693180.

Chains of the proteins cited; added tags and fusions are not shown.
UniProt Q9NZJ0: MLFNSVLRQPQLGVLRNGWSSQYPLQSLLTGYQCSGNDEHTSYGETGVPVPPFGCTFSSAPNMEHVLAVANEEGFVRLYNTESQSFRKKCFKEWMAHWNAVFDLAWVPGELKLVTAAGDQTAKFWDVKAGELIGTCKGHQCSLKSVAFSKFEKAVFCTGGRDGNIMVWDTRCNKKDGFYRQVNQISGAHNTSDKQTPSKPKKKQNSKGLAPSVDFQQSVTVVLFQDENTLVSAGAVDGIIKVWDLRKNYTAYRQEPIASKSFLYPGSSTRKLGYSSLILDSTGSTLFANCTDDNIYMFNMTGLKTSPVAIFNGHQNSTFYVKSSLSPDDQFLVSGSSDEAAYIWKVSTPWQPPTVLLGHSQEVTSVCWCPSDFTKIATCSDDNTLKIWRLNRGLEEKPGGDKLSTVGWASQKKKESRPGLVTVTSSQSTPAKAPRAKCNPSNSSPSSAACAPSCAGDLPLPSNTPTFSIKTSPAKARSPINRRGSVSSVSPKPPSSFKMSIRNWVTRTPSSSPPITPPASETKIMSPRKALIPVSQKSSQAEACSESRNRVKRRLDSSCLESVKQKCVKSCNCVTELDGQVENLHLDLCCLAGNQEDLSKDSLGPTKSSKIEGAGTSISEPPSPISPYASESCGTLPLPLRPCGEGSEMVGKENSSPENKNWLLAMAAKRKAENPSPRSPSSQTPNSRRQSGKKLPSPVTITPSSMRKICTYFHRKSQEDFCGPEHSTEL

No constants are given. Whether binding was seen depends on the method and setting. In cells and extracts the contact can be indirect. These calls come from enrichment with a bait or labelling near it, and not all partners need be listed.

The target in this test is Flag-DTL (human) (UniProt Q9NZJ0). Nature of the test: affinity purification with mass spectrometry; 293T lysate with Flag-DTL (weak lysis buffer) on Flag magnetic affinity resin; SDS-PAGE, Coomassie-stained bands excised and analysed by mass spectrometry.

B1: Programmed cell death 4 (PDCD4) (protein, UniProt Q53EL6 1-469)
chain: MDVENEQILNVNPADPDNLSDSLFSGDEENAGTEEIKNEINGNWISASSINEARINAKAKRRLRKNSSRDSGRGDSVSDSGSDALRSGLTVPTSPKGRLLDRRSRSGKGRGLPKKGGAGGKGVWGTPGQVYDVEEVDVKDPNYDDDQENCVYETVVLPLDERAFEKTLTPIIQEYFEHGDTNEVAEMLRDLNLGEMKSGVPVLAVSLALEGKASHREMTSKLLSDLCGTVMSTTDVEKSFDKLLKDLPELALDTPRAPQLVGQFIARAVGDGILCNTYIDSYKGTVDCVQARAALDKATVLLSMSKGGKRKDSVWGSGGGQQSVNHLVKEIDMLLKEYLLSGDISEAEHCLKELEVPHFHHELVYEAIIMVLESTGESTFKMILDLLKSLWKSSTITVDQMKRGYERIYNEIPDINLDVPHSYSVLERFVEECFQAGIISKQLRDLCPSRGRKRFVSEGDGGRLKPESY
For B1, the binding entry is given as “binds”.
